From patent US8815940B2, “Coumarin-chalcones as anticancer agents” (Council of Scientific & Industrial Research, priority 2010, dated 2014) come the findings set out here.

The subject of the assay is MCF-7 (breast adenocarcinoma). The assay is described as follows: sulforhodamine B cell cytotoxicity assay, MCF-7. Type of assay: cell-based. Particulars: Homo sapiens, MCF7; Table 2; SRB assay, 48 h of exposure. On the procedure: The human cancer cell lines—KB (oral squamous cell carcinoma). C33A (cervical carcinoma), MCF-7 (breast adenocarcinoma), A549 (lung carcinoma) and mouse embryo fibroblast (NIH3T3) were obtained from American Type Culture Collection (ATCC), USA. These cells were grown in recommended media supplemented with 10% FBS, 50 μg/mL gentamycin and 2.5 μg/mL amphotericin B in a 5% CO2 humidified atmosphere at 37° C. Cells below 15 passage level were used for this study. A colorimetric sulforhodamine B assay was used for the measurement of cell cytotoxicity. 1×10^4 cells (in 180 μL) were added to each well of 96-well plate and incubated overnight to allow for cell attachment. Cells were then treated with serial two-fold dilutions of test compounds (100 to 1.6 μM) and untreated cells receiving the same volume of medium served as control. After 48 h of exposure, cells were fixed with ice-cold 50% TCA, stained with 0.4% (w/v) SRB in 1% acetic acid, washed and air dried. Bound dye was dissolved in 150 μL of 10 mM tris base. The plates were read at 540 nm absorbance on plate reader (Polarstar Galaxy, BMG, Germany). The cytotoxic effects of compounds were calculated as % inhibition in cell growth as per the formula […]. Determination of 50% inhibitory concentration (IC50) was based on dose-response curves.

On to `CC/C(=C(\c1ccccc1)c1ccc(OCCN(C)C)cc1)c1ccccc1` [Tamoxifen, reference compound], for which the IC50 worked out at 11.8 µM.
